# This is one part of the list.
# B1: truncCC1G-10077 (Coprinopsis cinerea) (protein)
# chain: MHHHHHHHHPLPSPGPGWVLIQNGGTGKFLCSTPSGDIGTADGPETVYDYSVQWRFIQREYTGVYHVVNRATGAYLRQIGTSMPSIGLAEENDDELKDWWMLETYDNSEIGLASIISRWTGNVLDHYGGVSVQALDNNTENSYRSWAIIPARDWLTSFSLVNGQGGLCLAAQYAREETRLSTTANVNDFHAQWVFRKPSGSSGYTIQNKYNNHYVGGTSARWELVVCCNKYFGIRNTSTQKYLAIEDGQVTFQDQDMTDRKQCWELCSGRATDTSGNDYDLIYMDDDLLEVMIPWVGDKQGDLKHYIEKRATKKPPKDKGGWQLPAAGLIKKPKFNDIRQLLQELIEQWEWDVVNEEREQIQTLVSIDEAEARRLLGRRPHPDIVAAYQRSRSSTLFRIDRQGYFNIAGDRYVNIQGQYGDDSYFHIALPVGVRFGREQIRRFLRDSLDRSTSVTITPTTCKPPSGGPDYNRDPDSDGDNSWIKWTIAVVGTSAIKHSEL
# Columns and labels:
# Experiment in all cases: glycan array binding signal (z-score within array); higher = stronger binding
# Conditions in all cases: glycan notation: IUPAC condensed, linker removed
# Fuc(a1-3)GlcNAc = target: Fuc(a1-3)GlcNAc
# Summary of the method: (§1)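 The binding signal is a Z-score computed within each array and averaged over linkers. Arrays of the same protein sequence at different concentrations or buffers were also averaged together. Data originate from 3228 arrays in the Consortium for Functional Glycomics database, kept only where the protein sequence was available.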
# [1] = target: Fuc(a1-3)[Gal(b1-4)]Glc6S
# Summary of the method: as §1
# [2] = target: Fuc(a1-3)[Gal(b1-4)]GlcNAc
# Summary of the method: as §1
# [3] = target: Fuc(a1-3)[Gal(b1-4)]GlcNAc(b1-2)Man
# Summary of the method: as §1
# [4] = target: Fuc(a1-3)[Gal(b1-4)]GlcNAc(b1-2)Man(a1-3)[Fuc(a1-3)[Gal(b1-4)]GlcNAc(b1-2)Man(a1-6)]Man(b1-4)GlcNAc(b1-4)GlcNAc
# Summary of the method: as §1
# [5] = target: Fuc(a1-3)[Gal(b1-4)]GlcNAc(b1-2)Man(a1-3)[Fuc(a1-3)[Gal(b1-4)]GlcNAc(b1-2)Man(a1-6)]Man(b1-4)GlcNAc(b1-4)[Fuc(a1-6)]GlcNAc
# Summary of the method: as §1
# [6] = target: Fuc(a1-3)[Gal(b1-4)]GlcNAc(b1-3)Gal(b1-3)[Fuc(a1-4)]GlcNAc
# Summary of the method: as §1
# [7] = target: Fuc(a1-3)[Gal(b1-4)]GlcNAc(b1-3)Gal(b1-4)[Fuc(a1-3)]GlcNAc
# Summary of the method: as §1
# [8] = target: Fuc(a1-3)[Gal(b1-4)]GlcNAc(b1-3)Gal(b1-4)[Fuc(a1-3)]GlcNAc(b1-3)Gal(b1-4)[Fuc(a1-3)]GlcNAc
# Summary of the method: as §1
# [9] = target: Fuc(a1-3)[Gal(b1-4)]GlcNAc(b1-3)GalNAc
# Summary of the method: as §1
# [10] = target: Fuc(a1-3)[Gal(b1-4)]GlcNAc(b1-6)GalNAc
# Summary of the method: as §1
# [11] = target: Fuc(a1-3)[Gal(b1-4)]GlcNAc(b1-6)[Gal(b1-3)GlcNAc(b1-3)]Gal(b1-4)Glc
# Summary of the method: as §1
# [12] = target: Fuc(a1-3)[Gal(b1-4)]GlcNAc6S
# Summary of the method: as §1
# [13] = target: Fuc(a1-3)[Gal3S(b1-4)]Glc
# Summary of the method: as §1
# [14] = target: Fuc(a1-3)[Gal3S(b1-4)]GlcNAc
# Summary of the method: as §1
# [15] = target: Fuc(a1-3)[Gal3S(b1-4)]GlcNAc6S
# Summary of the method: as §1
# [16] = target: Fuc(a1-3)[GalNAc(b1-4)]GlcNAc
# Summary of the method: as §1
# [17] = target: Fuc(a1-3)[GalNAc(b1-4)]GlcNAc6S
# Summary of the method: as §1
# Fuc(a1-4)GlcNAc = target: Fuc(a1-4)GlcNAc
# Summary of the method: as §1
# Fuc(b1-3)GlcNAc = target: Fuc(b1-3)GlcNAc
# Summary of the method: as §1
# Gal(a1-2)Gal = target: Gal(a1-2)Gal
# Summary of the method: as §1
# Gal(a1-3)Gal = target: Gal(a1-3)Gal
# Summary of the method: as §1
# Gal(a1-3)Gal(b1-3)GlcNAc = target: Gal(a1-3)Gal(b1-3)GlcNAc
# Summary of the method: as §1
# [18] = target: Gal(a1-3)Gal(b1-3)GlcNAc(b1-2)Man
# Summary of the method: as §1
# [19] = target: Gal(a1-3)Gal(b1-3)GlcNAc(b1-2)Man(a1-3)[Gal(a1-3)Gal(b1-3)GlcNAc(b1-2)Man(a1-6)]Man(b1-4)GlcNAc(b1-4)GlcNAc
# Summary of the method: as §1
# [20] = target: Gal(a1-3)Gal(b1-3)GlcNAc(b1-3)GalNAc
# Summary of the method: as §1
# [21] = target: Gal(a1-3)Gal(b1-3)GlcNAc(b1-6)GalNAc
# Summary of the method: as §1
# [22] = target: Gal(a1-3)Gal(b1-3)[Fuc(a1-4)]GlcNAc(b1-2)Man(a1-3)[Gal(a1-3)Gal(b1-3)[Fuc(a1-4)]GlcNAc(b1-2)Man(a1-6)]Man(b1-4)GlcNAc(b1-4)GlcNAc
# Summary of the method: as §1
# Gal(a1-3)Gal(b1-4)Glc = target: Gal(a1-3)Gal(b1-4)Glc
# Summary of the method: as §1
# Gal(a1-3)Gal(b1-4)GlcNAc = target: Gal(a1-3)Gal(b1-4)GlcNAc
# Summary of the method: as §1
# [23] = target: Gal(a1-3)Gal(b1-4)GlcNAc(b1-2)Man
# Summary of the method: as §1
# [24] = target: Gal(a1-3)Gal(b1-4)GlcNAc(b1-2)Man(a1-3)[Gal(a1-3)Gal(b1-4)GlcNAc(b1-2)Man(a1-6)]Man(b1-4)GlcNAc(b1-4)GlcNAc
# Summary of the method: as §1
# [25] = target: Gal(a1-3)Gal(b1-4)GlcNAc(b1-3)GalNAc
# Summary of the method: as §1
# [26] = target: Gal(a1-3)Gal(b1-4)GlcNAc(b1-6)GalNAc
# Summary of the method: as §1
# [27] = target: Gal(a1-3)Gal(b1-4)[Fuc(a1-3)]GlcNAc
# Summary of the method: as §1
# [28] = target: Gal(a1-3)Gal(b1-4)[Fuc(a1-3)]GlcNAc(b1-2)Man(a1-3)[Gal(a1-3)Gal(b1-4)[Fuc(a1-3)]GlcNAc(b1-2)Man(a1-6)]Man(b1-4)GlcNAc(b1-4)GlcNAc
# Summary of the method: as §1
# Gal(a1-3)GalNAc = target: Gal(a1-3)GalNAc
# Summary of the method: as §1
binder,measurement,setting,value
B1,glycan array binding signal (z-score),Fuc(a1-3)GlcNAc,-0.634
same,glycan array binding signal (z-score),[1],0.611
same,glycan array binding signal (z-score),[2],-0.345
same,glycan array binding signal (z-score),[3],0.503
same,glycan array binding signal (z-score),[4],0.357
same,glycan array binding signal (z-score),[5],0.902
same,glycan array binding signal (z-score),[6],0.276
same,glycan array binding signal (z-score),[7],1.37
same,glycan array binding signal (z-score),[8],-0.523
same,glycan array binding signal (z-score),[9],0.24
same,glycan array binding signal (z-score),[10],3.46
same,glycan array binding signal (z-score),[11],-0.77
same,glycan array binding signal (z-score),[12],-0.152
same,glycan array binding signal (z-score),[13],0.613
same,glycan array binding signal (z-score),[14],0.286
same,glycan array binding signal (z-score),[15],1.49
same,glycan array binding signal (z-score),[16],2.42
same,glycan array binding signal (z-score),[17],-0.037
same,glycan array binding signal (z-score),Fuc(a1-4)GlcNAc,-0.054
same,glycan array binding signal (z-score),Fuc(b1-3)GlcNAc,-1.34
same,glycan array binding signal (z-score),Gal(a1-2)Gal,-1.16
same,glycan array binding signal (z-score),Gal(a1-3)Gal,-0.374
same,glycan array binding signal (z-score),Gal(a1-3)Gal(b1-3)GlcNAc,-1.09
same,glycan array binding signal (z-score),[18],-1.05
same,glycan array binding signal (z-score),[19],1.97
same,glycan array binding signal (z-score),[20],1.23
same,glycan array binding signal (z-score),[21],0.981
same,glycan array binding signal (z-score),[22],0.782
same,glycan array binding signal (z-score),Gal(a1-3)Gal(b1-4)Glc,-0.412
same,glycan array binding signal (z-score),Gal(a1-3)Gal(b1-4)GlcNAc,-0.741
same,glycan array binding signal (z-score),[23],-0.428
same,glycan array binding signal (z-score),[24],1.38
same,glycan array binding signal (z-score),[25],-0.235
same,glycan array binding signal (z-score),[26],-0.144
same,glycan array binding signal (z-score),[27],-0.868
same,glycan array binding signal (z-score),[28],2.58
same,glycan array binding signal (z-score),Gal(a1-3)GalNAc,-0.615

# Reprinted at random: 3 entries already listed, in no set order.
binder,measurement,setting,value
B1,glycan array binding signal (z-score),[28],2.58
same,glycan array binding signal (z-score),[22],0.782
same,glycan array binding signal (z-score),[15],1.49

# Source: the supplement of paper PMC8728848
